The chains are these.
B1: Rps8 (protein, UniProt P0CX39 1-200)
chain: MGISRDSRHKRSATGAKRAQFRKKRKFELGRQPANTKIGAKRIHSVRTRGGNKKYRALRIETGNFSWASEGISKKTRIAGVVYHPSNNELVRTNTLTKAAIVQIDATPFRQWFEAHYGQTLGKKKNVKEEETVAKSKNAERKWAARAASAKIESSVESQFSAGRLYACISSRPGQSGRCDGYILEGEELAFYLRRLTAKK
B2: Rps11 (protein, UniProt P0CX47 1-156)
chain: MSTELTVQSERAFQKQPHIFNNPKVKTSKRTKRWYKNAGLGFKTPKTAIEGSYIDKKCPFTGLVSIRGKILTGTVVSTKMHRTIVIRRAYLHYIPKYNRYEKRHKNVPVHVSPAFRVQVGDIVTVGQCRPISKTVRFNVVKVSAAAGKANKQFAKF
B3: Rps19 (protein, UniProt P07280 1-144)
chain: MPGVSVRDVAAQDFINAYASFLQRQGKLEVPGYVDIVKTSSGNEMPPQDAEGWFYKRAASVARHIYMRKQVGVGKLNKLYGGAKSRGVRPYKHIDASGSINRKVLQALEKIGIVEISPKGGRRISENGQRDLDRIAAQTLEEDE
B4: Dbp9 (protein, UniProt Q06218 1-594)
chain: MSYEKKSVEGAYIDDSTTFEAFHLDSRLLQAIKNIGFQYPTLIQSHAIPLALQQKRDIIAKAATGSGKTLAYLIPVIETILEYKKTIDNGEENGTLGIILVPTRELAQQVYNVLEKLVLYCSKDIRTLNISSDMSDSVLSTLLMDQPEIIVGTPGKLLDLLQTKINSISLNELKFLVVDEVDLVLTFGYQDDLNKIGEYLPLKKNLQTFLMSATLNDDIQALKQKFCRSPAILKFNDEEINKNQNKLLQYYVKVSEFDKFLLCYVIFKLNLIKGKTLIFVNNIDRGYRLKLVMEQFGIKSCILNSELPVNSRQHIVDQFNKNVYQLLIATDDTEYIKEEDDEIEEGHNTENQEEKSLEGEPENDKKPSKKKKVQVKKDKEYGVSRGVDFKNVACVLNFDLPTTAKSYVHRVGRTARGGKTGTAISFVVPLKEFGKHKPSMLQTAKKDERILSRIIKQQSKLGLELQPYKFDQKQVEAFRYRMEDGFRAVTQVAIREARVKELKQELLASEKLKRHFEENPKELQSLRHDKELHPARVQQHLKRVPDYLLPESARGNGTKVKFVPFHNAKKRHSHKKGRVSKPKNGKVDPLKNFK
B5: Rps24 (protein, UniProt P0CX32 1-135)
chain: MSDAVTIRTRKVISNPLLARKQFVVDVLHPNRANVSKDELREKLAEVYKAEKDAVSVFGFRTQFGGGKSVGFGLVYNSVAEAKKFEPTYRLVRYGLAEKVEKASRQQRKQKKNRDKKIFGTGKRLAKKVARRNAD
B6: Mak21/Noc1 (protein, UniProt Q12176 1-1025)
chain: MSENNGNPLDLSSLRNKISSKLRDNNSKKAKKTHKGKDVKASSNSKKVNEDIRREALALGASEEDLKLIQGLSDDDDAKSEQEFDAVADEDADDKGFKNDLQNFMKNVGFDQHKLEDVDDDDIEEESTSSKESKIPAQEKEHAQSNIASSTIEKTSQESIDNGSEQEENTVEEANLSSDQEPESESAEKEKKEEKDGGLITQTTIISSDKLIIPYDKPWYEIPLDPQVGQNDDVEELSKEQIEKLFERGKQTLEADNQTYYEEFTKDSSQAKFMSQILSDGTLNDKISAVTLLIQDSPLHNTKSLETLVSYCGKKSRNSALQSLNALKDLFLNGLLPNRKLRYFKNQPGLSMMLNKKTLAIFYFEDYLKKLFFRVLEVLEVLSHDPIIHVRLQILNHVFDLLTNQPEQEFNLLRLGVNKIGDIDSKVSSKASYLLLKLEQAHPNMKSIVIDAIVDIALRPNADYHTTYYSVITLNQTILKRSEDSVANKLVKTYFTLFEKFLINTDKDNTNGVVKSNSKSYEEKRKKNFKKGKHGGKSVKIEKTENEVLDEKNSKLFSALLTGINRAFPFAQIPASVYEVHMETLFKITHSSNFNTSIQALVLINQVTVKAKLNSDRYYRTLYESLFDPRLVNSSKQGIYLNLLYKSLKQDALNVERVEAFVKRILQVCSHWLNVGTITGFFFLLIQLAKTVPQIKNLLTNTPVDYEYESDAEEEQGDKDIKRKEYDGRKRDPKFANAEKSSLWEINNFINHFHPTVKTYANAYVTGETEQIAKPDLGLFTLSHFLDRFVYRSAKQTNTARGTSIMQPLFSGSRVNDSVLVKASDIMHDQGPVNTEDWLTKKVEDIKPEDKFFYQYFTTKKTADGKGKKSNKASNFDSDDEMDENEIWSALVKSRPDVEDDSDDSELDFAEDDFSDSTSDDEPKLDAIDDEDAKSEGSQESDQEEGLDEDIFYSFDGEQDNSDKKRSFAESSEEDESSEEEKEEEENKEVSAKRAKKKQRKNMLKSLPVFASADDYAQYLDQDSD
B7: Utp22 (protein, UniProt P53254 1-1237)
chain: MATSVKRKASETSDQNIVKVQKKHSTQDSTTDNGSKENDHSSQAINERTVPEQENDESDTSPESNEVATNTAATRHNGKVTATESYDIHIARETAELFKSNIFKLQIDELLEQVKLKQKHVLKVEKFLHKLYDILQEIPDWEEKSLAEVDSFFKNKIVSVPFVDPKPIPQNTNYKFNYKKPDISLIGSFALKAGIYQPNGSSIDTLLTMPKELFEKKDFLNFRCLHKRSVYLAYLTHHLLILLKKDKLDSFLQLEYSYFDNDPLLPILRISCSKPTGDSLSDYNFYKTRFSINLLIGFPYKVFEPKKLLPNRNCIRIAQESKEQSLPATPLYNFSVLSSSTHENYLKYLYKTKKQTESFVEATVLGRLWLQQRGFSSNMSHSGSLGGFGTFEFTILMAALLNGGGINSNKILLHGFSSYQLFKGVIKYLATMDLCHDGHLQFHSNPENSSSSPASKYIDEGFQTPTLFDKSTKVNILTKMTVSSYQILKEYAGETLRMLNNVVQDQFSNIFLTNISRFDNLKYDLCYDVQLPLGKYNNLETSLAATFGSMERVKFITLENFLAHKITNVARYALGDRIKYIQIEMVGQKSDFPITKRKVYSNTGGNHFNFDFVRVKLIVNPSECDKLVTKGPAHSETMSTEAAVFKNFWGIKSSLRRFKDGSITHCCVWSTSSSEPIISSIVNFALQKHVSKKAQISNETIKKFHNFLPLPNLPSSAKTSVLNLSSFFNLKKSFDDLYKIIFQMKLPLSVKSILPVGSAFRYTSLCQPVPFAYSDPDFFQDVILEFETSPKWPDEITSLEKAKTAFLLKIQEELSANSSTYRSFFSRDESIPYNLEIVTLNILTPEGYGFKFRVLTERDEILYLRAIANARNELKPELEATFLKFTAKYLASVRHTRTLENISHSYQFYSPVVRLFKRWLDTHLLLGHITDELAELIAIKPFVDPAPYFIPGSLENGFLKVLKFISQWNWKDDPLILDLVKPEDDIRDTFETSIGAGSELDSKTMKKLSERLTLAQYKGIQMNFTNLRNSDPNGTHLQFFVASKNDPSGILYSSGIPLPIATRLTALAKVAVNLLQTHGLNQQTINLLFTPGLKDYDFVVDLRTPIGLKSSCGILSATEFKNITNDQAPSNFPENLNDLSEKMDPTYQLVKYLNLKYKNSLILSSRKYIGVNGGEKGDKNVITGLIKPLFKGAHKFRVNLDCNVKPVDDENVILNKEAIFHEIAAFGNDMVINFETD
B8: Rps7 (protein, UniProt P26786 1-190)
chain: MSAPQAKILSQAPTELELQVAQAFVELENSSPELKAELRPLQFKSIREIDVAGGKKALAIFVPVPSLAGFHKVQTKLTRELEKKFQDRHVIFLAERRILPKPSRTSRQVQKRPRSRTLTAVHDKILEDLVFPTEIVGKRVRYLVGGNKIQKVLLDSKDVQQIDYKLESFQAVYNKLTGKQIVFEIPSETH
B9: Rps17 (protein, UniProt P02407 1-136)
chain: MGRVRTKTVKRASKALIERYYPKLTLDFQTNKRLCDEIATIQSKRLRNKIAGYTTHLMKRIQKGPVRGISFKLQEEERERKDQYVPEVSALDLSRSNGVLNVDNQTSDLVKSLGLKLPLSVINVSAQRDRRYRKRV

The chains behind the UniProt entries cited, without tags or fusion partners.
UniProt Q05022: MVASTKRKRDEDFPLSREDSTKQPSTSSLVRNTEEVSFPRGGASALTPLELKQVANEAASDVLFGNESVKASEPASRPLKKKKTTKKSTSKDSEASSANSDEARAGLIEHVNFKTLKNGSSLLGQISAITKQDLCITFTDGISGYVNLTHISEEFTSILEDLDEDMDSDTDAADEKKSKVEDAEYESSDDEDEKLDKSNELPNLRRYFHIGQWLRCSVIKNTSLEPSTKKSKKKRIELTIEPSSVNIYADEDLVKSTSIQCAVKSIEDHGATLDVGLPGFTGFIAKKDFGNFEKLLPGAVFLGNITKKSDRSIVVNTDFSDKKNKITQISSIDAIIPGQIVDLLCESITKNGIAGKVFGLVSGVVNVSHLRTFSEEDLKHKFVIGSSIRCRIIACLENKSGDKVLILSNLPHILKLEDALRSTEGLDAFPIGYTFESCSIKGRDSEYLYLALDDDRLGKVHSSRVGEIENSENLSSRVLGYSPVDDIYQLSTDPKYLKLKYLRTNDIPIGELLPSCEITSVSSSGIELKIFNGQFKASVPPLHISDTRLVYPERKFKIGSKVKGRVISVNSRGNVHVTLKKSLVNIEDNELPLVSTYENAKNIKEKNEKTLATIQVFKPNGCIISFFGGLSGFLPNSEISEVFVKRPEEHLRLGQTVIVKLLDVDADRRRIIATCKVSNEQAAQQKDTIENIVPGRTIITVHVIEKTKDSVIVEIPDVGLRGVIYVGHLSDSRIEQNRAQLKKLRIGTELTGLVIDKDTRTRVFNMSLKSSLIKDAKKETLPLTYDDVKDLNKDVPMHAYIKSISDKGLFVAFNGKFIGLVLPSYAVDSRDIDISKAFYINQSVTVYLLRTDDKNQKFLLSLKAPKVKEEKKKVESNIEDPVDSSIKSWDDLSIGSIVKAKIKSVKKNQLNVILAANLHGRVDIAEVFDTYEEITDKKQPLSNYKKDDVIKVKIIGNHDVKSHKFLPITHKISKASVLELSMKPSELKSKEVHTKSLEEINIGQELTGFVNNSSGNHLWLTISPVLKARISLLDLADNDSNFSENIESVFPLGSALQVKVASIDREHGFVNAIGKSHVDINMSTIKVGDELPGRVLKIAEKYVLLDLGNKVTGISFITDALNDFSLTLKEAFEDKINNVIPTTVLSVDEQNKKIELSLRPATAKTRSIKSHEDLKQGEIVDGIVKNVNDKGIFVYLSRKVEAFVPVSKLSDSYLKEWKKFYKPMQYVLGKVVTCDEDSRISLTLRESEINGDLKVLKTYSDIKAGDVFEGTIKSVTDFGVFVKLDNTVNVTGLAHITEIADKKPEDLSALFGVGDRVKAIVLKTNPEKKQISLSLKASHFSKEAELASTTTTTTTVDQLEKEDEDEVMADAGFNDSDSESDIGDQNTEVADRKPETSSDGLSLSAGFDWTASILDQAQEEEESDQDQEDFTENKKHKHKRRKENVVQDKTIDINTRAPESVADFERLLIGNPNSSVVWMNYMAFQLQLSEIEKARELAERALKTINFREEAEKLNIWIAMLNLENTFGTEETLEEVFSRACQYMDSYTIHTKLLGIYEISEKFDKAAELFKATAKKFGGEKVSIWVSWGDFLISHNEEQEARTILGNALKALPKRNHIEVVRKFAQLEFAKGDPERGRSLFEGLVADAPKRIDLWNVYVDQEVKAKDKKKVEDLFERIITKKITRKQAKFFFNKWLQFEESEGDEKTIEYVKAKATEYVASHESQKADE

Results are given in words; binding and its absence hold for the method and conditions named. In cells and extracts the contact can be indirect. Here binding means that the protein was enriched with, or labelled near, the bait; the list need not be complete.

For the assay, the target named is Rrp5-HTP (budding yeast) (UniProt Q05022). Briefly: affinity purification with mass spectrometry; Rrp5-HTP bound to an IgG column, RNase treatment, brief formaldehyde crosslinking on the column, washing under denaturing conditions (8 M urea), release by brief decrosslinking and SDS; the material migrating above Rrp5 in SDS-PAGE analysed by mass spectrometry; Brr2 as control bait.
For the molecule B1, the binding result is recorded as “binds”.

Take B2: the binding result is reported as “binds”.

As for B3, the binding entry was “binds”. Regarding B4, the binding entry was “binds”. In the case of B5, the binding entry was “binds”. With B6, the binding entry is recorded as “binds”. Turning to B7, the binding entry is recorded as “binds”.

In the case of B8, the binding entry was “binds”. With B9, the binding entry was “binds”.

For the origin of these results see publication PMC3991325.
